Assay [1] concerns the target bone morphogenetic protein receptor type IA (mouse (endogenous in C2C12)) (UniProt P36895). The experiment in a line: condition: only cells stimulated with 100 nM of CK2.3 for 18 h; co-IP; as a1, but C2C12 cells stimulated with 100 nM CK2.3 for 18 h before lysis; Western blot for CK2β. (Immunoblotting shows a protein as a band on a membrane.)
The target is the same in assay [2]. The experiment in a line: co-IP; endogenous BMPRIA immunoprecipitated (rabbit polyclonal antibody on Protein G magnetic beads, overnight at 4 °C, NP-40 lysis buffer) from lysates of C2C12 cells left unstimulated or stimulated with 100 nM CK2.3 for 6 h or 12 h; Western blot for CK2β.

Amino acid sequences for entries named in this document (tags omitted). Residues count along the entry.
UniProt P36895, residues 24-532: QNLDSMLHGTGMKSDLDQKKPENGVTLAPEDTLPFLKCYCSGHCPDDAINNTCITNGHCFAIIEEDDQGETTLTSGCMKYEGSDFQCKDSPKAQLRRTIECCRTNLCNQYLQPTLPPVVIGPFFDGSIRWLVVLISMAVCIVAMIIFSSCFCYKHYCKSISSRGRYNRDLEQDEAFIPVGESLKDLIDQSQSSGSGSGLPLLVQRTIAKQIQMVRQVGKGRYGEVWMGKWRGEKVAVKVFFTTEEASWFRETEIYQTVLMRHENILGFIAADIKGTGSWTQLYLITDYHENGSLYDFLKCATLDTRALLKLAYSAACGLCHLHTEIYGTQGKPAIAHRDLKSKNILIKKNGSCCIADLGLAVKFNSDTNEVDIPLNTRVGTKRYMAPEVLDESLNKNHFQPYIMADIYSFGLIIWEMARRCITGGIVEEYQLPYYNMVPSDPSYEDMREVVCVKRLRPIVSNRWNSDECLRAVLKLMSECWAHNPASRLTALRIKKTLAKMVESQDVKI
UniProt P67871: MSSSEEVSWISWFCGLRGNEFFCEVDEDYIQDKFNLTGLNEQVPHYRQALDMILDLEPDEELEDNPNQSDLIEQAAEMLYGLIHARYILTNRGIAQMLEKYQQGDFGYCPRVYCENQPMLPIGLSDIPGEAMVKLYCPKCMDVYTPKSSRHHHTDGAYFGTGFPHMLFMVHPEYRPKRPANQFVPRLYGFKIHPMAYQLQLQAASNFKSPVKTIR

The text below walks through data of publication PMC6567251.

No constants are given. Whether binding was seen depends on the method and setting. In cells and extracts the contact can be indirect. Some results given as binding are weak or reduced against the parent protein; the word gives no strength.

Turning to “Protein Kinase 2- regulatory subunit β (from UniProt P67871 1-215)”, the binding entry in assay [1] was “no binding”; in assay [2], “binds”.
